Some of these results come from one statement about several compounds together.
Type: in vivo
Settings: intravenously into tail, 10 mg/kg, observed during 8 days

Structure (SMILES)	death and body weight reduction
CNC(=O)C(CCNC(=N)N)NC(=O)C(CC(C)C)C(C)C(=O)NO (single isomer, unassigned) [Compound No. 28, N^4-[3-Guanidino-1(S)-methylcarbamoylpropyl]-N^1-hydroxy-3(R)-isobutyl-2(R or S)-methylsuccinamide · 1 acetate]	neither die nor reduce their body weight
CC(=N)NCCCCC(NC(=O)C(CC(C)C)C(CCCc1ccccc1)C(=O)NO)C(=O)NCCO (single isomer, unassigned) [Compound No. 36, N^a-[4-(Hydroxyamino)-2(R)-isobutyl-3(R or S)-(3-phenylpropyl)-succinyl]-N^e-acetimidoyl-L-lysine N-(2-hydroxyethyl)amide · 1 acetate]	neither die nor reduce their body weight
CC(C)CC(C(=O)NC(CCCN)C(=O)NC1CC1)C(C)C(=O)NO (single isomer, unassigned) [Compound No. 37, N^a-[4-(Hydroxyamino)-2(R)-isobutyl-3(R or S)-methylsuccinyl]-L-ornithine N-cyclopropylamide · 1 acetate]	neither die nor reduce their body weight
CNC(=O)C(Cc1ccc(CNC(C)=N)cc1)NC(=O)C(CC(C)C)C(C)C(=O)NO (single isomer, unassigned) [Compound No. 41, N^a-[4-(Hydroxyamino)-2(R)-isobutyl-3(R or S)-methylsuccinyl]-4'-acetimidoyliminomethyl-L-phenylalanine N-methylamide · 1 acetate]	neither die nor reduce their body weight
CC(=N)NCc1ccc(CC(NC(=O)C(CC(C)C)C(C)C(=O)NO)C(=O)NN2CCOCC2)cc1 (single isomer, unassigned) [Compound No. 42, N^a-[4-(Hydroxyamino)-2(R)-isobutyl-3(R or S)-methylsuccinyl]-4'-acetimidoyliminomethyl-L-phenylalanine N-(morpholin-4-yl)-amide · 1 acetate]	neither die nor reduce their body weight
CNC(=O)C(CCCNC(=N)N)NC(=O)C(CC(C)C)C(C)C(=O)NO [Compound No. 25, N^a-[4-(Hydroxyamino)-2(R)-isobutyl-3(RS)-methylsuccinyl]-L-arginine N-methylamide · 1 acetate]	neither die nor reduce their body weight
CNC(=O)C(CCNC(=N)N)NC(=O)C(CC(C)C)C(CC(C)C)C(=O)NO [Compound No. 27, N^4-[3-Guanidino-1(S)-methylcarbamoylpropyl]-N^1-hydroxy-3(R),2(RS)-diisobutylsuccinamide · 1 acetate]	neither die nor reduce their body weight
CC(C)CC(C(=O)NO)C(CC(C)C)C(=O)NC(Cc1ccc(CN)cc1)C(=O)NCCO [Compound No. 35, N^a-[4-(Hydroxyamino)-2(R),3(RS)-diisobutylsuccinyl]-4'-aminomethyl-L-phenylalanine N-(2-hydroxyethyl)amide · 1 acetate]	neither die nor reduce their body weight
CNC(=O)C(CCCN)NC(=O)C(CC(C)C)C(CCCc1ccc(NC(=N)N)cc1)C(=O)NO [Compound No. 46, N^a-[4-(Hydroxyamino)-2(R)-isobutyl-3(RS)-[3-(4'-guanidinophenyl)propyl]succinyl]-L-ornithine-N-methylamide · 2 acetate]	neither die nor reduce their body weight

From patent EP1038864A1, “NOVEL METALLOPROTEINASE INHIBITORS” (FUJI YAKUHIN KOGYO KABUSHIKI KAISHA, priority 1997, dated 1999)
